This note sets out measurements from PMC3317521.

Protein sequences, listed by entry. Tags and fused reporters are not part of them. Lines headed by an entry give the natural chain unless they say otherwise; changes in a name come on top.
UniProt E5RWX7: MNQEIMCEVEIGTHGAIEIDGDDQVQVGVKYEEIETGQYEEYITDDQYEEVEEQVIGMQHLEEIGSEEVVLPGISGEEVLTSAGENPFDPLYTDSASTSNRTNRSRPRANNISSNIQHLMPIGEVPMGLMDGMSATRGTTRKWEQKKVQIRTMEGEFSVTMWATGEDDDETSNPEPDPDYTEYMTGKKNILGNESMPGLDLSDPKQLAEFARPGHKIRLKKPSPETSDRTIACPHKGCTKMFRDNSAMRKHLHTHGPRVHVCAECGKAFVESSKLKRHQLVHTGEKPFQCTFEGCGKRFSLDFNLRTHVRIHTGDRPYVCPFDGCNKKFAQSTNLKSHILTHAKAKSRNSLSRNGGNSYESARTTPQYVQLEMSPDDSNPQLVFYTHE
UniProt E5RWX5: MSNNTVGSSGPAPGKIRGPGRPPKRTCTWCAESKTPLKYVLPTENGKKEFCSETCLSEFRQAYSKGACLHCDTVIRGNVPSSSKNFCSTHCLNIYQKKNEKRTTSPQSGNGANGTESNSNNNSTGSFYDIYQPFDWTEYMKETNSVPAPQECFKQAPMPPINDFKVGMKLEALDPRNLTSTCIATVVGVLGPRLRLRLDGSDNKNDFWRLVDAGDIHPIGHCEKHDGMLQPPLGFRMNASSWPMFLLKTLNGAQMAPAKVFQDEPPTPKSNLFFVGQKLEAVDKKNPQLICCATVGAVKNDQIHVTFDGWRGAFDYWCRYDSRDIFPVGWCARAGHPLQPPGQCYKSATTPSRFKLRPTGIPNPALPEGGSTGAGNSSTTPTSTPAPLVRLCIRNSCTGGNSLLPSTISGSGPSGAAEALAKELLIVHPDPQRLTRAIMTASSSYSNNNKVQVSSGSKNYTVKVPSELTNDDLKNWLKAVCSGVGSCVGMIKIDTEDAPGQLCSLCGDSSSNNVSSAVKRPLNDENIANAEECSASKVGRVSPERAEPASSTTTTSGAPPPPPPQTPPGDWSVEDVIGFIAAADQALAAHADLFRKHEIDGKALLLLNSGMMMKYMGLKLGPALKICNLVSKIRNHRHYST
UniProt P49867: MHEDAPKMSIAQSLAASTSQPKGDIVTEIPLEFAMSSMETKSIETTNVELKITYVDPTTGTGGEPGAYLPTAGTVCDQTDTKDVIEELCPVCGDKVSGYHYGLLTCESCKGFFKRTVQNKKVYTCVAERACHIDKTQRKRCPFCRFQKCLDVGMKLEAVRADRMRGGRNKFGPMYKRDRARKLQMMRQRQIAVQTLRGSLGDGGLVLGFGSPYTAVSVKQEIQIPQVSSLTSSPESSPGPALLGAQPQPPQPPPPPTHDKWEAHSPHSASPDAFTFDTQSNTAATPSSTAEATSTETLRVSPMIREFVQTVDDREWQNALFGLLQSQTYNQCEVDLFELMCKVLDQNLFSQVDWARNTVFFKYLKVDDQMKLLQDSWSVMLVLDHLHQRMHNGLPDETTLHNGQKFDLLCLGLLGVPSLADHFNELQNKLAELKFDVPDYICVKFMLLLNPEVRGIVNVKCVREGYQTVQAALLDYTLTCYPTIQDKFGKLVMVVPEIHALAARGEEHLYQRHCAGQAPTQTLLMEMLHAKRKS
UniProt E5RWY0: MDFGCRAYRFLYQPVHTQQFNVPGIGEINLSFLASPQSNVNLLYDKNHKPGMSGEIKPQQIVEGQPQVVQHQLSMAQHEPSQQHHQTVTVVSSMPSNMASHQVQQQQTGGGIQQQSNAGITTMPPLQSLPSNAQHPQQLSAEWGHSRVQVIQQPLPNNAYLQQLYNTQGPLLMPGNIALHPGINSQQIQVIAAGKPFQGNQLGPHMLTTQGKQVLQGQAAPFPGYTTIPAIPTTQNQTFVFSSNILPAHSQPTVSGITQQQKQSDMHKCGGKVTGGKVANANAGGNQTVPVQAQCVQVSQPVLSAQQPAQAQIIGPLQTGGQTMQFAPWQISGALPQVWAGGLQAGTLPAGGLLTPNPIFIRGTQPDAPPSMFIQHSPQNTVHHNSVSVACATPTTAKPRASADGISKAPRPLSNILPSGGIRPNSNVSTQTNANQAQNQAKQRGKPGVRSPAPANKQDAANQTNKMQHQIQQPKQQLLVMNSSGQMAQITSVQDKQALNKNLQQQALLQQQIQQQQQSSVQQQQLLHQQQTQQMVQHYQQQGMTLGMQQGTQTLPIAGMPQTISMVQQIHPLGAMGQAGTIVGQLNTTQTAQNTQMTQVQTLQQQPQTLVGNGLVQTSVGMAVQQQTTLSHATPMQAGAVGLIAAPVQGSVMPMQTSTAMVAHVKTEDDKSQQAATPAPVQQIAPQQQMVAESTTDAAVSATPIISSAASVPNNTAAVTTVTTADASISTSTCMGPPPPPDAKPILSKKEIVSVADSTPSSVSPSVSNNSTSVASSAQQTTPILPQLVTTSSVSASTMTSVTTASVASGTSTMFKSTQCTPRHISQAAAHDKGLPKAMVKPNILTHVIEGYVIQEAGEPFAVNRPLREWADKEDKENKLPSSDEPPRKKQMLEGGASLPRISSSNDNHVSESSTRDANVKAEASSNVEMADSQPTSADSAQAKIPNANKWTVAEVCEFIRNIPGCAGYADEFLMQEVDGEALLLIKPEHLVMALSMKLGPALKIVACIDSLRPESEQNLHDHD
UniProt E5RWX8: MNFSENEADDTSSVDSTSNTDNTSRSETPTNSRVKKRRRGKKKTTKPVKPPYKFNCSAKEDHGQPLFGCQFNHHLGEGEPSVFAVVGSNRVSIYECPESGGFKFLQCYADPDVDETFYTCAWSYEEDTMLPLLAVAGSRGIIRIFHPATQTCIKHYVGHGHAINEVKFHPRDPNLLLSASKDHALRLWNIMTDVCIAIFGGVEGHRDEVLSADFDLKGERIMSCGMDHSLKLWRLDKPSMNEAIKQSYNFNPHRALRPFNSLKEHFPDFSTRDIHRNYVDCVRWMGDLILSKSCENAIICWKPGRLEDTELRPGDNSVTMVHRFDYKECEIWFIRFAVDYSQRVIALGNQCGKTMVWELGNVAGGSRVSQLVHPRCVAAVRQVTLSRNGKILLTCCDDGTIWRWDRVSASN
UniProt E5RWX6: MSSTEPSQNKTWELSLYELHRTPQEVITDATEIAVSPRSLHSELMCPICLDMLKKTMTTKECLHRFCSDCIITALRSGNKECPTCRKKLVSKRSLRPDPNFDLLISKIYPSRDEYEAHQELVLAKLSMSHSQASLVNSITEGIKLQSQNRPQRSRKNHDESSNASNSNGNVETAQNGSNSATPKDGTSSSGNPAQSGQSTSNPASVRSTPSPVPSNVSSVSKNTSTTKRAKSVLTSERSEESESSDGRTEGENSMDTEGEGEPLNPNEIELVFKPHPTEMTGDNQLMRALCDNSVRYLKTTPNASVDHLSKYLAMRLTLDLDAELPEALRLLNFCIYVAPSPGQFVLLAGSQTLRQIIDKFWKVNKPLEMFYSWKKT

One experiment concerns the target BmPho (Bombyx mori) (UniProt E5RWX7). As to the kind of experiment: co-IP; HA-tagged and Flag-tagged proteins co-expressed in BmN4 cells; lysis in RIPA buffer (50 mM Tris-HCl pH 8.0, 150 mM NaCl, 1% NP-40, 0.5% sodium deoxycholate, 0.1% SDS); IP with anti-HA, elution with HA peptide, blot with anti-Flag.
A further experiment concerns the target BmScm (Bombyx mori) (UniProt E5RWX5). The description is as above.
Experiment [1] deals with BmScm (BiFC fusion) (Bombyx mori) (UniProt E5RWX5). Briefly: split reporter; BiFC: 100 ng of each plasmid for PcG proteins fused in pnVW or pcCW co-transfected into BmN4 cells; green fluorescence observed 72 h after transfection in fixed cells.
In experiment [2] the target is BmPho (BiFC fusion) (Bombyx mori) (UniProt E5RWX7). Described as above.

Results are given in words; binding and its absence hold for the method and conditions named. Binding seen in cells or lysates may run through a third protein. Binding calls can cover weak binding; strength is not graded here.

For the substance “Flag-BmFtz-F1 (from UniProt P49867 1-534)”, the binding result with BmPho (Bombyx mori) and with BmScm (Bombyx mori) was “no binding” throughout.

Turning to “BmPh (BiFC fusion) (from UniProt E5RWY0)”, the binding entry in experiment [1] and in experiment [2] was “binds” each time.

Regarding “BmScm (BiFC fusion) (from UniProt E5RWX5)”, the binding result in experiment [2] is “binds”.

For the substance BmPh (from UniProt E5RWY0), the binding result with BmPho (Bombyx mori) and with BmScm (Bombyx mori) was “binds” in each case.

Regarding “BmEsc (BiFC fusion) (from UniProt E5RWX8)”, the binding result in experiment [1] and in experiment [2] was “binds” throughout.

As for “BmSce (BiFC fusion) (from UniProt E5RWX6)”, the binding result in experiment [1] and in experiment [2] was “binds” in each case.

In the case of BmScm (from UniProt E5RWX5), in the experiment with BmPho (Bombyx mori), the binding result is listed as “binds”.
